Experimental data reported in patent US20230390283A1, “USES OF CHK2 INHIBITORS” (The University of Birmingham, priority 2020, published 2023).
“Also recorded” adds a separate entry of the source. At least one compound was matched to its structure with a doubt left. Some entries share one result that the patent states for a list of compounds.

Columns and labels:
γH2Ax = settings: 30 days after induction of glaucoma
[1] = tested on: retinal nerve fibre layer; assay: Optic neuritis model: RNFL thickness by OCT; format: in vivo, mice; settings: day 21
Experimental: Induction of optic neuritis. […] Animals were intraperitoneally injected with 150 ng Bordetella pertussis toxin on day 0 and 2. Animals were monitored daily and assessed for the development of EAE. At the end of the experiment, animals were then killed by CO2 overdose.
Measurement of RNFL thinning using optical coherence tomography (OCT). […] Examinations were recorded in both right (oculus dextrus, OD) and left eyes (oculus sinister, OS) of each animal at day 0 and day 21 after immunisation. […] A RNFL single exam using the automatic real time (ART) mode (allows averaging of 100 recordings) was produced for each mouse eye, which automatically measured RNFL thickness (μm) in a 30° circle surrounding the optic nerve head.

N=C1NC(=O)/C(=C/c2ccc(O)cc2)S1 [mirin]
levels of γH2Ax in retina (γH2Ax): attenuates; also recorded: suppresses | RNFL thickness in optic neuritis [1]: preserved | protection against retinal nerve fibre layer thinning [1]: > 97%
